Laboratory results reported in PMC10184829.
Read-outs that look alike come from different tables or passages of the source. Results are given in words; binding and its absence hold for the method and conditions named. In cells and extracts the contact can be indirect. Some binding calls cover weakened binding; strength is not graded here. Where a sequence is shown, tags or fusion partners need not be part of it.

The chains behind the UniProt entries cited, without tags or fusion partners.
UniProt P59242: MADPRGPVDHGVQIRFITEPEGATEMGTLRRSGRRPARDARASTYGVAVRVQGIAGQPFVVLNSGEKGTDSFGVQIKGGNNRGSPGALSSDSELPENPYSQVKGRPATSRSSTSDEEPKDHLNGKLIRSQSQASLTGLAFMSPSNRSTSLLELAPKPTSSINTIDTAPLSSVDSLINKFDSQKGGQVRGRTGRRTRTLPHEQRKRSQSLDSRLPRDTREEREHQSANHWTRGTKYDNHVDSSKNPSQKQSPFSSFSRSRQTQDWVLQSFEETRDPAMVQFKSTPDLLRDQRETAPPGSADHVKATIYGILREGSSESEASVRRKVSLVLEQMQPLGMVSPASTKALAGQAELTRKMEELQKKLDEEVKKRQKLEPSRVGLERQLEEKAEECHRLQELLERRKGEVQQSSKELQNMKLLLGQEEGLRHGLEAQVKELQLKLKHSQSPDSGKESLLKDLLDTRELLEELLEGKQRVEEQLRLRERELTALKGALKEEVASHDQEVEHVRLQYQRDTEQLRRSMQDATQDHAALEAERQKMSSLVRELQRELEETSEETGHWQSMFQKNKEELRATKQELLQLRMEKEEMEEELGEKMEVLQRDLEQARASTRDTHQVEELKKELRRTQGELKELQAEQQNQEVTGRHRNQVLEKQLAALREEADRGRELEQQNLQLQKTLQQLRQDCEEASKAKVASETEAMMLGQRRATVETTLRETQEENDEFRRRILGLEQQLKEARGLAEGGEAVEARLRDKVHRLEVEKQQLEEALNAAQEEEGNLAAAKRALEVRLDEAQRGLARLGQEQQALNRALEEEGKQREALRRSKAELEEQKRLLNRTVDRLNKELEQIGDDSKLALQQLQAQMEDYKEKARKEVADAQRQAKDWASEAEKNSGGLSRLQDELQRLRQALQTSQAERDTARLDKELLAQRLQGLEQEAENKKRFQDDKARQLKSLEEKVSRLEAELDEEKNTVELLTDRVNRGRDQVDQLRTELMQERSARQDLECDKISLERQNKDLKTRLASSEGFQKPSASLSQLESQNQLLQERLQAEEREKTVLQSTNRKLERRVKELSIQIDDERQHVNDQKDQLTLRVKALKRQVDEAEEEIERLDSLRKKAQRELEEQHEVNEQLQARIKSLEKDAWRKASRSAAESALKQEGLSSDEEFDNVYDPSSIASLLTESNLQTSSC

T1: GST-tagged truncated mouse CAMSAP3 (CC1+2: 600-729) (mouse) (UniProt Q80VC9)
T1 sequence: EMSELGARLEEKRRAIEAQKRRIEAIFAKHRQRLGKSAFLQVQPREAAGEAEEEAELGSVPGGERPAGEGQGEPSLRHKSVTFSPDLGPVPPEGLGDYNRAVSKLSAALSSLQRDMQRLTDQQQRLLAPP

B1: GFP-tagged full-length mouse CGNL1 (protein, UniProt Q6AW69 1-1297)
chain: MELYFGEYQHVQQEYGVHLRLASGDTPKPRNSQPSKAGSYGVSIRVQGIDGHPYIVLNNTERCLAGTPFPENAPSFPSSVINNLSLHPSNGTVLKENTPEELQLPENPYLQTSPLRGQKQFSLHEGRNGVLERKDGPTKLPHVLNFQRHPELLQPYDPEKNEVNAKKHHPPESPWLRNATEDGTNCKKSRNCFPKSYGSQPNSPTSEDLAKTNMTAIRLCSSVVIEDPQKQTSVCVNVQRCAKEGVGEETLSPRRKSPTAPSPQAYSETKKNRPDVLPFRRQDSAGPILDGARSRRSSSSSTTPTSATSLYKFLLDDQECAIHADSVNRHENRRYIPFLPGTGRDIDTCSIPGVDQLIEKFDQKPGLQRRGRSGKRNRINPDDRKRSRSVDSAFPFGLQGNTEYLTEFSRNLGKSSEHLLRPSQVFPQRSVAQEHRGKHSPSSPPAKLQGAQGAHPKPPLQNKDGKVLNKGRQESTGACAPSLPAPNKKEEEIKIATATLMLQNRAVAATSDSGAKKISVKTFPSDSSTQATPDLLKGQQELTQQTNEETAKQILYNYLKEGGTDNEDATKRKVNLVFEKIQTLKSRAAGSAQGSNQAPNSPSEGNSLLDQKNKLILEVSELQQQLQLEMKNQQNIKEERERMREDLEELRVRHQSQVEETATLQRRLEESEGELRKSLEELFQVKMEREQHQTEIRDLQDQLSEMHDELDSTKRSEDREKGALIEELLQAKQDLQDLLIAKEEQEDLLRKRERELTALKGALKEEVSSHDQEMDKLKEQYDAELQALRESVEEATKNVEVLASRSNSSEQSQAEADLREKVLKEENEKLQGRIAELERRAAQLQRQMEDVKGDEAQAKETLRKCESEVQQLEEALVHARKEEKEATCARRALEKELEQARRELSQVSQEQKELLEKLRDEAEQKEQLRKLKNEMESERWHLDKTIEKLQKEMADIAEASRTSSLELQKQLGEYKEKNRRELAEMQTQLKEKCLEVEKARLAASKMQDELRLKEEELQDYQRAEEEALTKRQLLEQSLKDLEYELEAKSHLKDDRSRLIKQMEDKVSQLEIELEEERTNADLLSERITWSREQMEQMRSELLQEKAAKQDLECDKISLERQNKDLKSRIIHLEGSYRSSKEGLVVQMEARIAELEDRLENEERDRANLQLSNRRLERKVKELVMQVDDEHLSLTDQKDQLSLRLKAMKRQVEEAEEEIDRLESSKKKLQRELEEQMGVNEQLQGQLNSLKKGLRLKTLSSKVLDDSDDDDLSSDAGSLYEAPLSYAFPKDSTIASQI

Tests used:
[1] = biological target: T1, GST-tagged truncated mouse CAMSAP3 (CC1+2: 600-729) (mouse); test: pull-down; GST fusion proteins as baits; GFP-tagged preys expressed in HEK293T cells, in lysates; immunoblot with anti-GFP antibodies; only the target purified
[2] = biological target: T1, GST-tagged truncated mouse CAMSAP3 (CC1+2: 600-729) (mouse); test: as above; remark: listed apart in the source

Row | Molecule | binding [1] | binding [2]
1 | GFP-tagged full-length mouse CGN (cingulin) (from UniProt P59242 1-1191) | no binding | 
2 | B1 |  | binds
